Test results as given in patent US20190085041A1.
Results are given in words; binding and its absence hold for the method and conditions named. Some binding calls cover weakened binding; strength is not graded here. Tags and fused reporters may be left off the sequences shown.

Chains of the proteins cited; added tags and fusions are not shown. Residues count along the entry.
UniProt P05067, residues 672-713: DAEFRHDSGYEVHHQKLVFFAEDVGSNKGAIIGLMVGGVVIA

Key:
[1] = target: Aβ protein (Human, 1-42) (Human) (UniProt P05067); test: co-incubation, SDS-PAGE, western blot with V5-HRP (FIG. 6B)
[2] = target: Aβ protein (Human, 1-42) (Human) (UniProt P05067); test: co-incubation, SDS-PAGE, western blot with Aβ antibody (FIG. 6A)
[3] = target: Aβ protein (Human, 1-42) (Human) (UniProt P05067); test: conclusion of Example 5 from the co-incubation and western blot results
[4] = target: Aβ protein (Human, 1-42) (Human) (UniProt P05067); test: co-incubation at 4 °C overnight, SDS-PAGE, western blot with Aβ antibody and V5-HRP

Measured: binding

B1: His×6-V5-sDSS1 protein (protein, not shown: small tags and cut ends)
chain: MSEKKQPVDLGLLEEDDEFEEFPAEDWAGLDEDEDAHVWEDNWDDDNVEDDFSNQLRATVLLMILVCETPYGCYVLHQKGRMCSAFLCC
binds: all assays above
